## Library screen at single concentrations

Amino acid sequences for entries named in this document (tags omitted). Residues count along the entry.
UniProt Q4DA54, 1-478: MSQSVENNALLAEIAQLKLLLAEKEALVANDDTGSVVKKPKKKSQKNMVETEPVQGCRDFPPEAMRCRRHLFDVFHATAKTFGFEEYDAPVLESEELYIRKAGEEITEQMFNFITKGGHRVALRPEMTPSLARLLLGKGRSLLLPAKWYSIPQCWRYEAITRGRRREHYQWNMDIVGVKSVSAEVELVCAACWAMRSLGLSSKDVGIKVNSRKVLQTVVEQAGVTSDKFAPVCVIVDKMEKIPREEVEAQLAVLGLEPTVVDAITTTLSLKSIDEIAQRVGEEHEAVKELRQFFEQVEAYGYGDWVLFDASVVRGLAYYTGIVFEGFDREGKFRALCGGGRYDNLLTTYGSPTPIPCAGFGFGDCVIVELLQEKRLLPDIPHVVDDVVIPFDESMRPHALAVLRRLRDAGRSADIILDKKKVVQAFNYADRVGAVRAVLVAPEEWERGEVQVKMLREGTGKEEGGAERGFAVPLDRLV
UniProt Q8IDJ8, 1-583: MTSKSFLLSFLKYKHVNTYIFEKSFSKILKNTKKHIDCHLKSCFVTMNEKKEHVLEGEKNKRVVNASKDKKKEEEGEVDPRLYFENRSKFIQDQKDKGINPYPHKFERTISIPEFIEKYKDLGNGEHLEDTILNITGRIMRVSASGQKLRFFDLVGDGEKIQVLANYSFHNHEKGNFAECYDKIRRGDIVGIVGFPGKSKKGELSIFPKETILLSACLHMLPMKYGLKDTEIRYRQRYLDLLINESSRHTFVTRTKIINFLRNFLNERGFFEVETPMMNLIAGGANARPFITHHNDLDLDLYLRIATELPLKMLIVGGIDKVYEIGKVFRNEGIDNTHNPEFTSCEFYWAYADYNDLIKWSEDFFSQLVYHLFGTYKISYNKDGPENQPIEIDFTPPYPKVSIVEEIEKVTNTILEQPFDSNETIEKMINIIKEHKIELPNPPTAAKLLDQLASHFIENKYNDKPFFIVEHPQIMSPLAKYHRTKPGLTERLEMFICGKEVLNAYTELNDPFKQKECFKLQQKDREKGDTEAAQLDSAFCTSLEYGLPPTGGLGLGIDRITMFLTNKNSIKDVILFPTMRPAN

Values are the deposited “Percent Effect”, in %. The record does not define 0% and 100%; most values in the screen are far below 50% and negative numbers occur (in some assays of this library far below -100). Compounds were drawn at random from those tested, without regard to their results.

A: 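Enzyme assay of histidyl-tRNA synthetase; the read-out is not stated. Target: Histidine-tRNA ligase, Trypanosoma cruzi CL Brener (UniProt Q4DA54). Tested at 30 µM. The record gives no direction; compounds that gave an IC50 in retests scored well above the rest, so higher reads as stronger inhibition. Size under these conditions: about 69,000 compounds, about 31 of them at 50% or above in at least one test.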
B: 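Enzyme assay of the cytosolic lysyl-tRNA synthetase in 384-well plates, read by luminescence. Target: Lysine-tRNA ligase, Plasmodium falciparum 3D7 (UniProt Q8IDJ8). Tested at 30 µM. Higher reads as stronger inhibition, judged from the few compounds that gave an IC50. Size under these conditions: about 69,000 compounds, about 49 of them at 50% or above in at least one test.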

Result for O=C(O)CN1CCC(C(F)(F)F)CC1 was A: 9.756%; B: 2.348%.
Result for Cc1ccccc1CS(=O)(=O)c1nnc(C(C)NC(=O)OC(C)(C)C)o1 (centres undefined) was A: 8%; B: -1.694%.
Result for CC(C)NC(=O)N1CCC2(CCC(=O)N2CCN(C)C)CC1 was A: 3.883%; B: -0.2069%.
Result for CCc1nc(CN2CCCN(C(=O)c3c(C)noc3C)CC2)cs1 was A: -2.29%; B: 6.4%.
Result for O=C(c1sccc1C1CC1)N1CCN(c2ncccn2)CC1 was A: -6.667%; B: 5.183%.
Result for c1ccc(CO[C@@H]2C[C@H]3CN(c4ncccn4)CCN3C2)cc1 was A: 10.13%; B: -1.002%.
Result for Cn1ccnc1NC[C@@H]1CCC[C@@H]2CN(Cc3nccs3)C[C@@H]21 was A: 3.797%; B: 7.563%.
Result for O=C(c1csc(C2CC2)n1)N1CCCCC1Cn1cccn1 (centres undefined) was A: -0.578%; B: -0.08779%.
Result for CCOC(=O)c1ccc(N2CCN(Cc3c(C)nn(C)c3Cl)CC2)nc1 was A: 5.419%; B: 7.386%.
Result for Cc1nc(CN2CCCN(C(=O)CC(C)n3cccc3)CC2)cs1 (centres undefined) was A: -2.97%; B: -2.344%.
Result for Cc1cc(C)n(CC(C)CNC(=O)NCc2c(C)cc(C)[nH]c2=O)n1 (centres undefined) was A: 6.667%; B: 1.2%.
Result for Cc1ncc(CN(C)C(=O)c2ccc(N3CCOCC3)c(F)c2)s1 was A: 0.5435%; B: -1.482%.
Result for CN1CCN(CC2CC2)C(=O)c2cnc(N3CC[C@@H](O)C3)nc21 was A: 1.887%; B: -2.883%.
Result for O=c1c2cnc(N3CCOCC3)nc2ccn1-c1ccccc1 was A: 5.682%; B: 3.17%.
Result for Cc1ccc(N2CCC3(CCC(=O)N3)CC2)nn1 was A: 3.797%; B: 5.159%.
Result for CC1CCN(CC(=O)NC(C#N)c2cnn(-c3ccccc3)c2)CC1 (centres undefined) was A: 6.173%; B: 0.1312%.
Result for COc1ccc(-c2noc(C3CCS(=O)(=O)C3)n2)cc1OC (centres undefined) was A: -4.04%; B: 7.593%.
Result for CCC(C(=O)Nc1ccc2cn(CC)nc2c1)N1CCCC1=O (centres undefined) was A: 0.5848%; B: 7.516%.
Result for Cc1ccc(-c2cc(-c3nc(CN4CCN(C)CC4)no3)[nH]n2)s1 was A: 4.615%; B: 5.374%.
Result for Cc1ncc2c(n1)CCN(C(C(N)=O)c1ccccc1)C2 (centres undefined) was A: 1.657%; B: 2.175%.
Result for Cc1ccccc1OCCN1CCn2c(C)nnc2C1 was A: -1.127%; B: 1.46%.
Result for CC(=O)N1CCCC1c1cc(N2CCN(C3CCCC3)CC2)cc(C)n1 (centres undefined) was A: 9.677%; B: 8.792%.
Result for N[C@@H]1CCN(Cc2ccc(-c3nc(-c4cccnc4)cc(=O)[nH]3)cc2)C1 was A: 1.117%; B: 5.873%.
Result for COc1cccc(CN2C[C@@H]3COC[C@]3(CNC(=O)C3CC3)C2)c1 was A: 0.5025%; B: 4.497%.
Result for COCCO[C@H]1COCCN(C2CCN(C)CC2)C1 was A: -6.468%; B: -8.817%.
Result for FC(F)(F)c1c[nH]c(C2CCN(c3ncccn3)CC2)n1 was A: 2.597%; B: 2.825%.
Result for CC(C)C1CCN(C(=O)NCC(=O)N(C)CC(F)(F)F)CC1 was A: 4.95%; B: -4.975%.
Result for CN(CC1(C)COC1)C(=O)c1cc(-c2cnn(C)c2)nc2ccccc12 was A: 1.916%; B: 0.7688%.
Result for O=C(c1nn(-c2ccccc2F)cc1O)N1CCCC1 was A: -0.3831%; B: 10.91%.
Result for COCCOCC(=O)N1CCC2(CCCN(C3CCOCC3)C2=O)C1 (centres undefined) was A: 10.05%; B: -1.847%.
Result for OCC1N(Cc2ccc(F)cc2)[C@H]2CC[C@]1(O)CC2 (some centres undefined) was A: 7.865%; B: 3.372%.
Result for N#Cc1ccnc(N2CCN(CC(O)c3cc(F)ccc3F)CC2)c1 (centres undefined) was A: 6.349%; B: 2.159%.
Result for N#CCCN(C(=O)CN1CCCC1Cc1ccccc1)c1ccccc1 (centres undefined) was A: 1.604%; B: -0.9754%.
Result for O=C(c1ccco1)N1CCC(n2nc(-c3ccco3)ccc2=O)CC1 was A: 4.255%; B: 1.753%.
Result for CC(CC#N)N1CCN(C(=O)OC(C)(C)C)CC1 (centres undefined) was A: 3.03%; B: 2.041%.
Result for CCc1noc(CN2CCOC3(CCCC3)C2)n1 was A: 6%; B: -2.096%.
Result for Cc1nc(CN2CCCC2c2nc(C(C)C)no2)cs1 (centres undefined) was A: 0%; B: 3.999%.
Result for CN(C)C(=O)CNC(CC(F)(F)F)c1ccc(F)cc1 (centres undefined) was A: 3.03%; B: 6.149%.
Result for Cc1nccn1-c1ccc(N2CCC(N[C@H](C)C(C)C)CC2)cc1 was A: -3.352%; B: 0.06673%.

The first 2 entries again:

| Compound | A | B |
|---|---|---|
| `O=C(O)CN1CCC(C(F)(F)F)CC1` | 9.756 | 2.348 |
| `Cc1ccccc1CS(=O)(=O)c1nnc(C(C)NC(=O)OC(C)(C)C)o1` (centres undefined) | 8 | -1.694 |

The values are deposited in ChEMBL (CHEMBL3988442, “University of Dundee, Small-Polar-MMV Screening Library” (2021)).